PubChem BioAssay AID1224830, NIAID – 2016
Purpose: 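Host factors that control LPS-induced TNF expression in human macrophages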 (primary screen). System: human THP-1 monocytic leukaemia cells, TNF dual-luciferase reporter clone, PMA-differentiated to macrophage-like cells. Knock-down reagent: siRNA pool against human genes, 50 nM. Timing: LPS for 4 h, given about 3 days after siRNA transfection. Conditions: bacterial LPS (TLR4 ligand), 10 ng/ml. Detection: 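TNF firefly reporter luminescence divided by renilla, normalised to the plate median, then turned into a robust z-score for each replicate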. Reading the numbers: TNF reporter robust z-score: higher = stronger TNF reporter response to LPS. Active means: 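Each well counts as active if its z-score is over 2.8 or under -1.5; controls are left without a call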.
Here is a random part of about 18,000 reagents. Over the whole deposit, about 2,900 (16%) are marked active. 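Calls are made per well; low scores hint the gene aids the LPS response, high scores that it dampens it.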 A number with no mark means an inactive call. Repeated entries: four replicate wells of each siRNA pool.

For VGLL1 (vestigial like family member 1) the deposit lists TNF reporter robust z-score -1.51 (active).
Against VGLL1 (vestigial like family member 1), the values are TNF reporter robust z-score -1.88 (active).
VGLL1 (vestigial like family member 1) gave TNF reporter robust z-score -1.32.
Silencing of VGLL1 (vestigial like family member 1) gave: TNF reporter robust z-score -1.38.
Knock-down of STYXL1 (serine/threonine/tyrosine interacting like 1) gave: TNF reporter robust z-score -0.75.
With knock-down of STYXL1 (serine/threonine/tyrosine interacting like 1) the results were TNF reporter robust z-score -0.3.
Against STYXL1 (serine/threonine/tyrosine interacting like 1) the deposit lists TNF reporter robust z-score -0.81.
Depletion of STYXL1 (serine/threonine/tyrosine interacting like 1) gave: TNF reporter robust z-score -0.83.
For SRPRA (SRP receptor subunit alpha), the values are TNF reporter robust z-score 0.91.
Against SRPRA (SRP receptor subunit alpha), the values are TNF reporter robust z-score 0.42.
SRPRA (SRP receptor subunit alpha) gave TNF reporter robust z-score 0.
Depletion of SRPRA (SRP receptor subunit alpha) resulted in: TNF reporter robust z-score 1.25.

3 entries from above, sorted by “TNF reporter robust z-score”, descending:
VGLL1 (vestigial like family member 1): TNF reporter robust z-score = -1.32
VGLL1 (vestigial like family member 1): TNF reporter robust z-score = -1.51 (active)
VGLL1 (vestigial like family member 1): TNF reporter robust z-score = -1.88 (active)

More reagents follow:
Against DYNC2I1 (dynein 2 intermediate chain 1), the values are TNF reporter robust z-score 0.09.
DYNC2I1 (dynein 2 intermediate chain 1) scored TNF reporter robust z-score -0.04.
With knock-down of DYNC2I1 (dynein 2 intermediate chain 1), the screen gave TNF reporter robust z-score 0.16.
With knock-down of DYNC2I1 (dynein 2 intermediate chain 1), the screen gave TNF reporter robust z-score -0.73.
After knock-down of EOGT (EGF domain specific O-linked N-acetylglucosamine transferase), the screen gave TNF reporter robust z-score -0.66.
After knock-down of EOGT (EGF domain specific O-linked N-acetylglucosamine transferase), the screen gave TNF reporter robust z-score -0.71.
For EOGT (EGF domain specific O-linked N-acetylglucosamine transferase), the entry reads TNF reporter robust z-score -0.27.
For EOGT (EGF domain specific O-linked N-acetylglucosamine transferase), the entry reads TNF reporter robust z-score -0.43.
